Results reported in patent US20260007599A1, “TICAGRELOR IV FORMULATIONS FOR USE IN THE TREATMENT OF GRAM-POSITIVE BACTEREMIA” (Hyloris Developments SA, priority 2023, published 2026).
Further values from the same series stand in other lists.

Assay: Solubilization of ticagrelor in unbuffered cyclodextrin stock solutions in milli Q water, appearance on shaking platform;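 also: plus means clear and fully dissolved while plus-minus means clear solution with precipitation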
Format: physicochemical
Procedure: In a first example two different types of cyclodextrin were used and compared for the solubilization of ticagrelor. An unbuffered stock solution of HPBCD or SBECD was made in water at the target concentrations of 20 w/w %, 25 w/w %, 30 w/w %, 35 w/w % and 40 w/w %. Ticagrelor was added slowly under vortex. Ticagrelor was used at concentrations of 5, 10 or 14 mg/ml in milli Q water. The ticagrelor-cyclodextrin solutions were left on a shaking platform. No sonification or heat was applied.

With CCCSc1nc(N[C@@H]2C[C@H]2c2ccc(F)c(F)c2)c2nnn([C@@H]3C[C@H](OCCO)[C@@H](O)[C@H]3O)c2n1 [ticagrelor, (1S,2S,3R,5S)-3-{7-[(1R,2S)-2-(3,4-difluorophenyl)cyclopropylamino]5-(propylthio)-3H-(1,2,3)triazolo (4,5-D)pyrimidin-3-yl}-5-(2 hydroxyethoxy) cyclopentane-1,2-diol] the Appearance in cyclodextrin (SBECD 20% w/w, ticagrelor 5 mg/ml, after 5 min of shaking) was “− (translucent solution with precipitation)”, the Appearance in cyclodextrin (SBECD 20% w/w, ticagrelor 5 mg/ml, after 30 min of shaking) was “− (translucent solution with precipitation)” and the Appearance in cyclodextrin (SBECD 20% w/w, ticagrelor 5 mg/ml, after 60 min of shaking) was “− (translucent solution with precipitation)”. For the same compound, the Appearance in cyclodextrin (SBECD 20% w/w, ticagrelor 5 mg/ml, after 3 h of shaking) was “− (translucent solution with precipitation)”, the Appearance in cyclodextrin (SBECD 20% w/w, ticagrelor 5 mg/ml, after overnight shaking) was “− (translucent solution with precipitation)” and the Appearance in cyclodextrin (SBECD 20% w/w, ticagrelor 10 mg/ml, after 5 min of shaking) was “− (translucent solution with precipitation)”. The Appearance in cyclodextrin (SBECD 20% w/w, ticagrelor 10 mg/ml, after 30 min of shaking) was “− (translucent solution with precipitation)”, the Appearance in cyclodextrin (SBECD 20% w/w, ticagrelor 10 mg/ml, after 60 min of shaking) was “− (translucent solution with precipitation)” and the Appearance in cyclodextrin (SBECD 20% w/w, ticagrelor 10 mg/ml, after 3 h of shaking) was “− (translucent solution with precipitation)”. The Appearance in cyclodextrin (SBECD 20% w/w, ticagrelor 10 mg/ml, after overnight shaking) was “− (translucent solution with precipitation)”, the Appearance in cyclodextrin (SBECD 20% w/w, ticagrelor 14 mg/ml, after 5 min of shaking) was “− (translucent solution with precipitation)” and the Appearance in cyclodextrin (SBECD 20% w/w, ticagrelor 14 mg/ml, after 30 min of shaking) was “− (translucent solution with precipitation)”. The Appearance in cyclodextrin (SBECD 20% w/w, ticagrelor 14 mg/ml, after 60 min of shaking) was “− (translucent solution with precipitation)”, the Appearance in cyclodextrin (SBECD 20% w/w, ticagrelor 14 mg/ml, after 3 h of shaking) was “− (translucent solution with precipitation)” and the Appearance in cyclodextrin (SBECD 20% w/w, ticagrelor 14 mg/ml, after overnight shaking) was “− (translucent solution with precipitation)”. The Appearance in cyclodextrin (SBECD 25% w/w, ticagrelor 5 mg/ml, after 5 min of shaking) was “− (translucent solution with precipitation)”, the Appearance in cyclodextrin (SBECD 25% w/w, ticagrelor 5 mg/ml, after 30 min of shaking) was “− (translucent solution with precipitation)” and the Appearance in cyclodextrin (SBECD 25% w/w, ticagrelor 5 mg/ml, after 60 min of shaking) was “− (translucent solution with precipitation)”. The Appearance in cyclodextrin (SBECD 25% w/w, ticagrelor 5 mg/ml, after 3 h of shaking) was “− (translucent solution with precipitation)”, the Appearance in cyclodextrin (SBECD 25% w/w, ticagrelor 5 mg/ml, after overnight shaking) was “− (translucent solution with precipitation)” and the Appearance in cyclodextrin (SBECD 25% w/w, ticagrelor 10 mg/ml, after 5 min of shaking) was “− (translucent solution with precipitation)”. For the same compound, the Appearance in cyclodextrin (SBECD 25% w/w, ticagrelor 10 mg/ml, after 30 min of shaking) was “− (translucent solution with precipitation)”, the Appearance in cyclodextrin (SBECD 25% w/w, ticagrelor 10 mg/ml, after 60 min of shaking) was “− (translucent solution with precipitation)” and the Appearance in cyclodextrin (SBECD 25% w/w, ticagrelor 10 mg/ml, after 3 h of shaking) was “− (translucent solution with precipitation)”. The Appearance in cyclodextrin (SBECD 25% w/w, ticagrelor 10 mg/ml, after overnight shaking) was “− (translucent solution with precipitation)”, the Appearance in cyclodextrin (SBECD 25% w/w, ticagrelor 14 mg/ml, after 5 min of shaking) was “− (translucent solution with precipitation)” and the Appearance in cyclodextrin (SBECD 25% w/w, ticagrelor 14 mg/ml, after 30 min of shaking) was “− (translucent solution with precipitation)”. The Appearance in cyclodextrin (SBECD 25% w/w, ticagrelor 14 mg/ml, after 60 min of shaking) was “− (translucent solution with precipitation)”, the Appearance in cyclodextrin (SBECD 25% w/w, ticagrelor 14 mg/ml, after 3 h of shaking) was “− (translucent solution with precipitation)” and the Appearance in cyclodextrin (SBECD 25% w/w, ticagrelor 14 mg/ml, after overnight shaking) was “− (translucent solution with precipitation)”. For the same compound, the Appearance in cyclodextrin (SBECD 30% w/w, ticagrelor 5 mg/ml, after 5 min of shaking) was “− (translucent solution with precipitation)”, the Appearance in cyclodextrin (SBECD 30% w/w, ticagrelor 5 mg/ml, after 30 min of shaking) was “− (translucent solution with precipitation)” and the Appearance in cyclodextrin (SBECD 30% w/w, ticagrelor 5 mg/ml, after 60 min of shaking) was “− (translucent solution with precipitation)”. For the same compound, the Appearance in cyclodextrin (SBECD 30% w/w, ticagrelor 5 mg/ml, after 3 h of shaking) was “− (translucent solution with precipitation)”, the Appearance in cyclodextrin (SBECD 30% w/w, ticagrelor 5 mg/ml, after overnight shaking) was “− (translucent solution with precipitation)” and the Appearance in cyclodextrin (SBECD 30% w/w, ticagrelor 10 mg/ml, after 5 min of shaking) was “− (translucent solution with precipitation)”. For the same compound, the Appearance in cyclodextrin (SBECD 30% w/w, ticagrelor 10 mg/ml, after 30 min of shaking) was “− (translucent solution with precipitation)”, the Appearance in cyclodextrin (SBECD 30% w/w, ticagrelor 10 mg/ml, after 60 min of shaking) was “− (translucent solution with precipitation)” and the Appearance in cyclodextrin (SBECD 30% w/w, ticagrelor 10 mg/ml, after 3 h of shaking) was “− (translucent solution with precipitation)”. The Appearance in cyclodextrin (SBECD 30% w/w, ticagrelor 10 mg/ml, after overnight shaking) was “− (translucent solution with precipitation)”, the Appearance in cyclodextrin (SBECD 30% w/w, ticagrelor 14 mg/ml, after 5 min of shaking) was “− (translucent solution with precipitation)” and the Appearance in cyclodextrin (SBECD 30% w/w, ticagrelor 14 mg/ml, after 30 min of shaking) was “− (translucent solution with precipitation)”. For the same compound, the Appearance in cyclodextrin (SBECD 30% w/w, ticagrelor 14 mg/ml, after 60 min of shaking) was “− (translucent solution with precipitation)”, the Appearance in cyclodextrin (SBECD 30% w/w, ticagrelor 14 mg/ml, after 3 h of shaking) was “− (translucent solution with precipitation)” and the Appearance in cyclodextrin (SBECD 30% w/w, ticagrelor 14 mg/ml, after overnight shaking) was “− (translucent solution with precipitation)”. For the same compound, the Appearance in cyclodextrin (SBECD 40% w/w, ticagrelor 5 mg/ml, after 5 min of shaking) was “− (translucent solution with precipitation)”, the Appearance in cyclodextrin (SBECD 40% w/w, ticagrelor 5 mg/ml, after 30 min of shaking) was “+/−” and the Appearance in cyclodextrin (SBECD 40% w/w, ticagrelor 5 mg/ml, after 60 min of shaking) was “+/−”. The Appearance in cyclodextrin (SBECD 40% w/w, ticagrelor 5 mg/ml, after 3 h of shaking) was “+/−” and the Appearance in cyclodextrin (SBECD 40% w/w, ticagrelor 5 mg/ml, after overnight shaking) was “+ (clear, appeared completely dissolved)”.
